From article doi:10.1101/2021.08.17.456253
Results are given in words; binding and its absence hold for the method and conditions named. Binding seen in cells or lysates may run through a third protein. Here binding means that the protein was enriched with, or labelled near, the bait; the list need not be complete.

Sequences of proteins named here, by UniProt entry; tags and fusion partners are left off.
UniProt Q8CJG0: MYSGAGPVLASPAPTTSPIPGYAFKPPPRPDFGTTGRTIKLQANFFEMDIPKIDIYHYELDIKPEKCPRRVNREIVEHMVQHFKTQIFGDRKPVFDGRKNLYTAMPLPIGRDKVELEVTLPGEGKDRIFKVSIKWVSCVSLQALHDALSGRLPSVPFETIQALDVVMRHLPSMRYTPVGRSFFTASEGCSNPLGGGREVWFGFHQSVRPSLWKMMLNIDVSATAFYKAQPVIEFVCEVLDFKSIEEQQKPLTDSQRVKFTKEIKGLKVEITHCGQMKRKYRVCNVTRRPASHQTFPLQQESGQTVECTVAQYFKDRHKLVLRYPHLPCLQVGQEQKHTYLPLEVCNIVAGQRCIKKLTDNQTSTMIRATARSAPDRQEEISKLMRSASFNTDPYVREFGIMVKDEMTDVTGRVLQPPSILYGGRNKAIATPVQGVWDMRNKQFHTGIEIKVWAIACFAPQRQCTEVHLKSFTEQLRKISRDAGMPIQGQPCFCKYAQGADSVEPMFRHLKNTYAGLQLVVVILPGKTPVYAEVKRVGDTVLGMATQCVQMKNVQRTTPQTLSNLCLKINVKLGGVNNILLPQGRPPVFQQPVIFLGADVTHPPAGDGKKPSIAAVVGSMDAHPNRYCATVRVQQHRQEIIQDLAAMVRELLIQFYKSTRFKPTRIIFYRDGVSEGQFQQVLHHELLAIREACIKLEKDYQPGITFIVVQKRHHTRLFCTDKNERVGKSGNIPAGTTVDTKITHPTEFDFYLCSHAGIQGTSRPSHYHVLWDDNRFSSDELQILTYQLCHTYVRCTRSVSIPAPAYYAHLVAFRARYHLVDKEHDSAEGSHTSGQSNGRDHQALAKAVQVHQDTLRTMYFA

Target: Argonaute RISC Catalytic Component 2 (AGO2) (mouse (endogenous in round spermatids)) (UniProt Q8CJG0)
Assay: affinity purification with mass spectrometry

binding: binds
B1: nuclear export factor NXF1 (protein, UniProt Q99JX7 1-618)
chain: MADEGKSYNEHDDRVSFPQRRKKGRGPFRWKCGEGNRRSGRGGSGVQSSRFEEDDGDVAMNDPQDGPRVRYNPYTNRPNRRGDGWHDRDRIHITVRRDRAPAERGGAGTSQDGTTKNWFKITIPYGRKYDKTWLLSMIQSKCSVPFNPIEFHYENTRAHFFVEDATTASALKGVNHKIQDRENRRISIIINASAPPYTVQNELKPEQIEQLKLIMSKRYDGNQQALDLKGLRSDPDLVAQNIDVVLNRRSCMAATLRIIEENIPELLSLNLSSNRLYKLDDMSSIVQKAPNLKTLNLSGNELKTERELDKIKGLKLEELWLDRNPMCDNFGDQSSYISAIRERFPKLLRLDGHELPPPISFDVEAPTMLPPCKGSYFGTENLKSLVLRFLQQYYVIYDSGDRQGLLYAYHDGACCSLSIPYNPQNPVRKNLAEYVKDSRNVKKLKEPTQRFRLLKHTRLNVVAFLNELPKTQHDVNAFVVDISAQTSTLLCFSVNGVFKEVDGKSRDSLRAFTRTFIAVPASNSGLCIVNDELFVRNASPEEIQRAFAMSAPTPSSSPVPTLSPEQQEMLQAFSTQSGMNLEWSQKCLQDNNWDYTRSAQAFTLLKAKGEIPEVAFMK
